Assay: Bioequivalence of the fixed-dose composition to EBIXA and ARICEPT (plasma Cmax and AUC)
[1] = plasma donepezil, composition of the present disclosure vs reference ARICEPT

SMILES: COc1cc2c(cc1OC)C(=O)C(CC1CCN(Cc3ccccc3)CC1)C2 (racemic) [Donepezil 10mg, (RS)-2-[(1-benzyl-4-piperidyl)methyl]-5,6-dimethoxy-2,3-dihydroinden-1-one]
- bioequivalence to the mono-products (in the presence of Mannitol, immediate release fixed-dose combination composition): bioequivalent
- AUC 0→72 Point Estimate [%] [1]: 101.62%
- Cmax Point Estimate [%] [1]: 100.94%

From patent EP3843702B1, “IMMEDIATE RELEASE FIXED-DOSE COMBINATION OF MEMANTINE AND DONEPEZIL” (Tecnimede, Sociedade Técnico-Medicinal, SA, priority 2019, dated 2020)
